From publication PMC4873259
Results are given in words; binding and its absence hold for the method and conditions named. In cells and extracts the contact can be indirect. Some entries that bind do so weakly or less than the wild type. Tags and fused reporters may be left off the sequences shown.

Legend:
HA-RNF138 (human) = target: T1, HA-RNF138 (human) (UniProt Q8WVD3); test: co-IP; HA-RNF138 and myc-RAD51D co-expressed in HEK293T; lysis in NETN buffer (0.5% NP40, 50 mM Tris-HCl pH 8.0, 100 mM NaCl, 2 mM EDTA); co-immunoprecipitation and reciprocal co-immunoprecipitation, western blot
T1 sequence: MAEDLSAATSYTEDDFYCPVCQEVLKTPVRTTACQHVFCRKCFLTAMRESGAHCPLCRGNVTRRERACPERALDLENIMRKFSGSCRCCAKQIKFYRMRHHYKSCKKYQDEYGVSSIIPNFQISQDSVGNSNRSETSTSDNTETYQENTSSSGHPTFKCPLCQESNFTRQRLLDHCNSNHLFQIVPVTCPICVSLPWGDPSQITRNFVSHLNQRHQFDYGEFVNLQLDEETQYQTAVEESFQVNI

myc-RAD51D (human) = target: T2, myc-RAD51D (human) (UniProt O75771); test: as above
T2 sequence: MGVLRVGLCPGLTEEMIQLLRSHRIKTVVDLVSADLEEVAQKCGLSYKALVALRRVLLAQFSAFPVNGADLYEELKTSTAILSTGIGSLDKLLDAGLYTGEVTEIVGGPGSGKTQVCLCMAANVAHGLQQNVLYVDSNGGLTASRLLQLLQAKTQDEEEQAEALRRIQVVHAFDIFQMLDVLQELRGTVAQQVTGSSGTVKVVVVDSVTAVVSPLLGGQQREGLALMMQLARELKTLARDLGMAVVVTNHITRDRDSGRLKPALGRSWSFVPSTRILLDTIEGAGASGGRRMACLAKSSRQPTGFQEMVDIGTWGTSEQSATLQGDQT

Binder	binding (HA-RNF138 (human))	binding (myc-RAD51D (human))
myc-RAD51D (protein, UniProt O75771 1-328) MGVLRVGLCPGLTEEMIQLLRSHRIKTVVDLVSADLEEVAQKCGLSYKALVALRRVLLAQFSAFPVNGADLYEELKTSTAILSTGIGSLDKLLDAGLYTGEVTEIVGGPGSGKTQVCLCMAANVAHGLQQNVLYVDSNGGLTASRLLQLLQAKTQDEEEQAEALRRIQVVHAFDIFQMLDVLQELRGTVAQQVTGSSGTVKVVVVDSVTAVVSPLLGGQQREGLALMMQLARELKTLARDLGMAVVVTNHITRDRDSGRLKPALGRSWSFVPSTRILLDTIEGAGASGGRRMACLAKSSRQPTGFQEMVDIGTWGTSEQSATLQGDQT	binds	
HA-RNF138 (enzyme, UniProt Q8WVD3 1-245) MAEDLSAATSYTEDDFYCPVCQEVLKTPVRTTACQHVFCRKCFLTAMRESGAHCPLCRGNVTRRERACPERALDLENIMRKFSGSCRCCAKQIKFYRMRHHYKSCKKYQDEYGVSSIIPNFQISQDSVGNSNRSETSTSDNTETYQENTSSSGHPTFKCPLCQESNFTRQRLLDHCNSNHLFQIVPVTCPICVSLPWGDPSQITRNFVSHLNQRHQFDYGEFVNLQLDEETQYQTAVEESFQVNI		binds
